Assay: general procedure: solution-phase peptide synthesis; TBTU/NMM; DCC/NHS

Boc-(D)-Chg-Gly-Pro-Arg 3-chloro-4-hydroxyanilide×TFA
step yield (coupling step, TFA salt): 68.0%

H-(D)-Chg-Gly-Pro-Arg 3-chloro-4-hydroxyanilide×2 TFA
step yield (late stage modification step, 2 TFA): 72.0%

t-Bups-(D)-Chg-Gly-Pro-Arg 3-chloro-4-hydroxyanilide×AcOH
step yield (late stage modification step, AcOH): 88.0%

t-Bups-(D)-Chg-Gly-Pro-Arg 3-chloro-4-hydroxyanilide×TFA
step yield (late stage modification step, TFA salt): 83.0%
